Measured values from article PMC9048411.
For some assays here: No signal at the amounts used counts as a negative. At least one verdict was read from the data and is not stated in words by the source. For some assays here: The exact form of at least one protein or probe is not confirmed. For some assays here: Weaker means in comparison with the reference protein, sequence or condition of that experiment.

Assays:
TDP-43 WT = TDP-43 WT (UniProt Q13148); assay: phase separation microscopy and FRAP; conditions: called non-binding RNA, no effect on condensates vs no RNA, 4 uM each, 150 mM NaCl pH 7.5, RNA unlabeled; recombinant protein; residues 1-414
[1] = target: TDP-43 F4L F147L,F149L,F229L,F231L (UniProt Q13148); assay: fluorescence anisotropy; conditions: not determined up to 2 uM, could not be determined because contacts are greatly disrupted; Fluorescence anisotropy: 10 mM Tris pH 8.0, 300 mM NaCl, 5% glycerol, 5% sucrose, 0.5 mM TCEP, 100 nM 3'-FITC CLIP34, 0-2 uM protein, temperature not stated; recombinant protein; residues 1-414; label: 3' FITC

| Sequence | binding result (TDP-43 WT) | binding result [1] |
| --- | --- | --- |
| ACACACACACACACACACACACACACACACACACACA [A(CA)18] | no binding |  |
| GAGAGAGCGCGUGCAGAGACUUGGUGGUGCAUAA [CLIP34] |  | binds more weakly |
